This is an account of results in PMC6032326, “Connexin43 Carboxyl-Terminal Domain Directly Interacts with β-Catenin” (International Journal of Molecular Sciences, 2018).

The chains behind the UniProt entries cited, without tags or fusion partners. Where a name states a change or a piece, a line headed by the entry shows the natural chain unless it says otherwise. A line that says so, or that is headed by a name, gives the form on record, which may keep a tag or linker.
UniProt P08050: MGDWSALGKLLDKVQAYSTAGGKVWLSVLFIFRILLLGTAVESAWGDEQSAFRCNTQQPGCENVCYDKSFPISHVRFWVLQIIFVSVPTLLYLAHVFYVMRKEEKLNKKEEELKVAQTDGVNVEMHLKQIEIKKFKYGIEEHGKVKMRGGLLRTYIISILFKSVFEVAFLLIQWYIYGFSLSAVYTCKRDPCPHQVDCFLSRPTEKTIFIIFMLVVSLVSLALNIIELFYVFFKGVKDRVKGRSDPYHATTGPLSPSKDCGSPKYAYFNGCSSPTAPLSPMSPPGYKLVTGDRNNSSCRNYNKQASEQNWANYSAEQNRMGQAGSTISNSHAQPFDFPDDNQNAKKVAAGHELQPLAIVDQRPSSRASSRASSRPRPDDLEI
Cx43CT Y265,313D (P08050, form named): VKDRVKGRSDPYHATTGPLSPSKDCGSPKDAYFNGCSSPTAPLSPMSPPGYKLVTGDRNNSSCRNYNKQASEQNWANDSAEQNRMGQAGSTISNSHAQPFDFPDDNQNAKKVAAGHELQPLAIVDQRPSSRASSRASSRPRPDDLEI
UniProt P35222: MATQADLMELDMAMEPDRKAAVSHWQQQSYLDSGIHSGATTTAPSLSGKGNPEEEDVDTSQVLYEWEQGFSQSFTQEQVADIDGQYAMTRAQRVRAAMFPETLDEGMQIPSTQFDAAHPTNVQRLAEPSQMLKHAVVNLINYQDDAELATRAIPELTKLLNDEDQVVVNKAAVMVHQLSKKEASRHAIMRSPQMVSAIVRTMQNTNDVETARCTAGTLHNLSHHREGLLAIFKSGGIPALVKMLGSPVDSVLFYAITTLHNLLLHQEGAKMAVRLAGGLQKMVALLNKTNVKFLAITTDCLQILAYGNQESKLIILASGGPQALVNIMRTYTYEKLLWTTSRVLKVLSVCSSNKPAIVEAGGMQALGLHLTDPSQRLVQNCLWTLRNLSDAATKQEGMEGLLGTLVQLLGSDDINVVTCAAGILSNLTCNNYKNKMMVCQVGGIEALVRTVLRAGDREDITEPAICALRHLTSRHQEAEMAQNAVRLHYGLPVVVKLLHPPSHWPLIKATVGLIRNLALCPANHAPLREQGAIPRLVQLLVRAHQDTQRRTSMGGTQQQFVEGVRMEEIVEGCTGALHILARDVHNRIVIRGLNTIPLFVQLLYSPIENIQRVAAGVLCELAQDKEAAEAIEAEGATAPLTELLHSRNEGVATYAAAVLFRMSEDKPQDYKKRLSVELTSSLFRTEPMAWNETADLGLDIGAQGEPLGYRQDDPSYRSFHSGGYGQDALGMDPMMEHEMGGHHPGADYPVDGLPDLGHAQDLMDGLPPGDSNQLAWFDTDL

For test [1], the target named is Cx43CT Y265,313D (rat) (UniProt P08050). Kind of test: NMR titration; 15N-HSQC at 7 °C; 15N-labelled Cx43CT (WT, Y313D or Y265,313D) at constant 35 μM, unlabelled β-catenin, β-catenin CT or β-catenin ΔCT added up to 285 μM; 1x PBS pH 7.8, 2 mM dithiothreitol; KD from the fit of the decrease in signal intensity; both purified.
For test [2], the target named is Connexin43 carboxyl-terminal domain (V236–I382) (rat) (UniProt P08050). Described as above.

No constants are given. Whether binding was seen depends on the method and setting.

For “full-length β-catenin (from UniProt P35222 1-781)”, the binding result in test [1] was “no binding (tested: up to 285 μM)”. Same read-out and setting: in the case of “β-catenin carboxyl-terminal (CT) domain (S681–L781) (from UniProt P35222 681-781) (domain or fragment)” it was “no binding (tested: up to 285 μM)”. In the case of “β-catenin ΔCT (M1-S680) (from UniProt P35222 1-680) (domain or fragment)”, the binding result in test [2] is recorded as “no binding (tested: up to 285 μM)”.
